Data as given in PubChem BioAssay AID1259282 (Sanger Institute, 2017)
Assay: 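Kinases whose loss reduces viability on their own or with anchor drugs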 (primary screen). Cell system: DIFI human colorectal cancer cell line. Reagents: siRNA pool against human genes. Conditions: anchor drug at a mild dose (BYL719 1 µM, cetuximab 5 µg/ml, trametinib 10 nM) or DMSO vehicle; exposure time not given. Measured: 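Robust z-score and replicate-mean viability versus non-targeting pool without drug, plus a synergy score for each low-dose anchor drug (BYL719, cetuximab, trametinib)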. Scale: robust z-score, knock-down alone: higher = more viable cells than typical knock-down. Rule for the call: 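a knock-down is called essential if its DMSO robust z-score is under -3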. Meaning of the calls: active = essential (knock-down alone, z below -3); inactive = not essential.
Here is an unselected part of 794 reagents tested. 11 of them (1.4%) were called active. 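Calls flag knock-downs that lower viability without drug; drug synergy appears only in the synergy scores; exposure time not stated.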 Not all columns of the deposit are shown. No sequences are given here. Not given: the amount of reagent, the time to read-out.

target	robust z-score, knock-down alone	call
GUCY2F	0.715	inactive
FASTK	0.715	inactive
CSNK1A1	0.715	inactive
TRIB3	0.0035	inactive
ERN1	-1.25	inactive
PIK3R1	0.715	inactive
ROS1	0.154	inactive
CDK12	0.715	inactive
CDKL5	0.715	inactive
PANK3	0.715	inactive
GUCY2EP	0.715	inactive
MAP3K5	0.715	inactive
GRK2	0.338	inactive
TJP2	0.715	inactive
TEX14	0.715	inactive
DGKI	0.715	inactive
IDH2	0.715	inactive
RAF1	-0.362	inactive

Targets listed so far whose gene name begins with G or g (3):
target	robust z-score, knock-down alone	call
GUCY2F	0.715	inactive
GUCY2EP	0.715	inactive
GRK2	0.338	inactive

The list goes on:
target	robust z-score, knock-down alone	call
SCYL1	0.715	inactive
DGKB	-0.745	inactive
PFKFB2	0.715	inactive
FGR	0.302	inactive
DYRK1A	0.715	inactive
JAK3	0.715	inactive
GSK3A	-0.0781	inactive
LMBR1	0.715	inactive
SMAD4	-1	inactive
CIB2	-0.64	inactive
TK2	0.715	inactive
PDPK1	0.715	inactive
PRKACA	0.715	inactive
BUB1	0.48	inactive
STRADB	0.715	inactive
ACVR1C	0.715	inactive
AGK	-0.313	inactive
LATS2	0.715	inactive
DGKQ	-0.116	inactive
ELF3	-0.993	inactive
INSRR	0.715	inactive
AURKC	0.111	inactive
CDADC1	0.413	inactive
ALDH18A1	0.715	inactive
PIK3R2	0.715	inactive
NUAK1	-0.384	inactive
CDK11B	0.652	inactive
CAMKK2	0.715	inactive
BRD4	-1.21	inactive
CAMKV	-0.164	inactive
PKN1	0.715	inactive
TSSK4	0.715	inactive
